Source: publication PMC5696493
No constants are given. Whether binding was seen depends on the method and setting. In cells and extracts the contact can be indirect. Some binding calls cover weakened binding; strength is not graded here. For part of these data: Tags and fused reporters may be left off the sequences shown. Blank lines part the entries; values can stand above or below the binder they belong to.

Experiments:
[1] = target: T1, YFP–CYP2J5 fusion protein (mouse) (UniProt O54749); assay: FRET or BRET; FACS-based FRET (FAMPIR), sensitized emission, living HEK293 cells 48 h after transfection; YFP and CFP fused to the ER-luminal N-termini, both partners from one P2A transcript; cells gated for YFP and CFP expression
T1 sequence: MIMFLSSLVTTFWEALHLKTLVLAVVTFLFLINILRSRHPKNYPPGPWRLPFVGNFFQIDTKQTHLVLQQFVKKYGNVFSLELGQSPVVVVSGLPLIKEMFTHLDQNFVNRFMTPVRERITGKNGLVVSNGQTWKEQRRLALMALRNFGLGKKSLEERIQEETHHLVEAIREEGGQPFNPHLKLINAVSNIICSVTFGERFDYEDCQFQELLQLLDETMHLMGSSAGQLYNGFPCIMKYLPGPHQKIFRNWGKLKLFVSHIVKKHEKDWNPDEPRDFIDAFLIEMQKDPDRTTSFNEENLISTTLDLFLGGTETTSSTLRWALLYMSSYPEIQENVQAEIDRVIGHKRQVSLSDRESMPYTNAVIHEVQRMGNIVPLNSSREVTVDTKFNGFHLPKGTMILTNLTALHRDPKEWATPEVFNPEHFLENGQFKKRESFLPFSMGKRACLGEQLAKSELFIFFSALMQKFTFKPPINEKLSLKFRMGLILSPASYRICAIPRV

[2] = target: T2, CYP2J5, endogenous in mouse hippocampal neurons (mouse (endogenous in primary hippocampal neurons)) (UniProt O54749); assay: proximity ligation; Duolink in situ PLA on methanol-fixed primary mouse hippocampal neurons (WT, with mEH-/- neurons as control); rabbit anti-CYP2J2 and goat anti-rat mEH primary antibodies
T2 sequence: T1 sequence

B1: CFP–mEH fusion protein (mouse microsomal epoxide hydrolase) (enzyme, UniProt Q9D379 1-455)
chain: MWLELILASVLGFVIYWFVSRDKEETLPLEDGWWGPGSKPSAKEDESIRPFKVETSDEEIKDLHQRIDRFRASPPLEGSRFHYGFNSSYLKKVVSFWRNEFDWRKQVEILNQYPHFKTKIEGLDIHFIHVKPPQLPSGRTPKPLLMVHGWPGSFYEFYKIIPLLTDPKTHGLSDEHVFEVICPSIPGYGFSEASSKKGLNSVATARIFYKLMSRLGFQKFYIQGGDWGSLICTNIAQMVPNHVKGLHLNMSFISRNIYSLTPLLGQRFGRFLGYTEKDLELLYPFKEKVFYNIMRESGYLHIQATKPDTVGCALNDSPVGLAAYILEKFSTWTKSEYRELEDGGLERKFSLEDLLTNIMIYWTTGTIVSSQRFYKENLGQGVMVHRHEGMKVFVPTGYSAFPSEILHAPEKWVKVKYPKLISYSYMERGGHFAAFEEPKLLAQDIRKFVSLAELQ
- binding [1]: binds

- binding [2]: binds
B2: microsomal epoxide hydrolase (mEH), endogenous in mouse hippocampal neurons (enzyme, UniProt Q9D379 1-455)
chain: B1 chain

B3: CFP–CPR fusion protein (mouse cytochrome P450 reductase) (enzyme, UniProt P37040 1-678)
chain: MGDSHEDTSATVPEAVAEEVSLFSTTDIVLFSLIVGVLTYWFIFKKKKEEIPEFSKIQTTAPPVKESSFVEKMKKTGRNIIVFYGSQTGTAEEFANRLSKDAHRYGMRGMSADPEEYDLADLSSLPEIDKSLVVFCMATYGEGDPTDNAQDFYDWLQETDVDLTGVKFAVFGLGNKTYEHFNAMGKYVDQRLEQLGAQRIFELGLGDDDGNLEEDFITWREQFWPAVCEFFGVEATGEESSIRQYELVVHEDMDTAKVYTGEMGRLKSYENQKPPFDAKNPFLAAVTTNRKLNQGTERHLMHLELDISDSKIRYESGDHVAVYPANDSTLVNQIGEILGADLDVIMSLNNLDEESNKKHPFPCPTTYRTALTYYLDITNPPRTNVLYELAQYASEPSEQEHLHKMASSSGEGKELYLSWVVEARRHILAILQDYPSLRPPIDHLCELLPRLQARYYSIASSSKVHPNSVHICAVAVEYEAKSGRVNKGVATSWLRTKEPAGENGRRALVPMFVRKSQFRLPFKPTTPVIMVGPGTGVAPFMGFIQERAWLREQGKEVGETLLYYGCRRSDEDYLYREELARFHKDGALTQLNVAFSREQAHKVYVQHLLKRDKEHLWKLIHEGGAHIYVCGDARNMAKDVQNTFYDIVAEFGPMEHTQAVDYVKKLMTKGRYSLDVWS
- binding [1]: binds
